According to the supplement of paper PMC10849652:
Some of the results follow.

Amino acid sequences for entries named in this document (tags omitted). A change or cut given only in a name is not applied to a line headed by its entry.
UniProt Q9H7F0: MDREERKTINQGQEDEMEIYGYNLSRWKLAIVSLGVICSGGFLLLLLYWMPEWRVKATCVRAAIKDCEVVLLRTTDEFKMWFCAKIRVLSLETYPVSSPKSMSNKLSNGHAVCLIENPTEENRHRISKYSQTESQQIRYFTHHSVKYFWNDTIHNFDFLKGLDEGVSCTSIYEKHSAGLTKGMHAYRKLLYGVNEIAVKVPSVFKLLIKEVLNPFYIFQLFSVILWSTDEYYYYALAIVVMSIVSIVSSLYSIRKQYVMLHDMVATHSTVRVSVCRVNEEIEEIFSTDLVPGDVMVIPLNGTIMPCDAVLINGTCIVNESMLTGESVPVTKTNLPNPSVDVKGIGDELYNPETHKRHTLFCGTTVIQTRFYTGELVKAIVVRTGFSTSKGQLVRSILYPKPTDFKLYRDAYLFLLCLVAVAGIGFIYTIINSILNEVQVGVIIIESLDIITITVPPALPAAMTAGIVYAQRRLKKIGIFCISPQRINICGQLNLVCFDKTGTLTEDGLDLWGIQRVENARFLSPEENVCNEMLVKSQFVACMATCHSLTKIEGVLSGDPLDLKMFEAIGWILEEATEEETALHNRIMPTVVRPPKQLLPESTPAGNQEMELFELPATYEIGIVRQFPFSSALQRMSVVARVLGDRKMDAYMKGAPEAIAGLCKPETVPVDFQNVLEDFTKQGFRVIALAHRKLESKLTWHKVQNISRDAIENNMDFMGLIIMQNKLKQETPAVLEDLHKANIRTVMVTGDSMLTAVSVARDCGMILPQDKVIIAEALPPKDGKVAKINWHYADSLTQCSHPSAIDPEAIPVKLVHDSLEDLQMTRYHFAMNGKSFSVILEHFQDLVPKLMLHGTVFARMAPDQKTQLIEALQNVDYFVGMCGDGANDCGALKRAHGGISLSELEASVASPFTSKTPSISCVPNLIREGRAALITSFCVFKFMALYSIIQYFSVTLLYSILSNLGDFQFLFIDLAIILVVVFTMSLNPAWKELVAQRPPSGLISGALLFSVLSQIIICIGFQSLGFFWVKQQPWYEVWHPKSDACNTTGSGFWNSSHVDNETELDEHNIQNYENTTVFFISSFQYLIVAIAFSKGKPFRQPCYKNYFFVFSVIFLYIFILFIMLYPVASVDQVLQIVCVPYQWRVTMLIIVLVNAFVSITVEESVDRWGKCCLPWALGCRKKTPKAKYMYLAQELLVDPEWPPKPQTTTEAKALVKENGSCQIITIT
UniProt P56134: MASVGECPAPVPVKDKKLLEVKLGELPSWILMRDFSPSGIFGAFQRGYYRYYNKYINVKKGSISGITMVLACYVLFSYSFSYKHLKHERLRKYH
UniProt Q66PJ3: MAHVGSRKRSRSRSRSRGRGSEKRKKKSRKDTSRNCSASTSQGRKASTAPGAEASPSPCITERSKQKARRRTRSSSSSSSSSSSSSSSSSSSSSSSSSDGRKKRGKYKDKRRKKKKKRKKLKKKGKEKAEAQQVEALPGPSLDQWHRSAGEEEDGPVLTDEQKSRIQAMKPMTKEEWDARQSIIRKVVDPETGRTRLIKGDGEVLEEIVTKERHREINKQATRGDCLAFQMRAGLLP
UniProt Q93050, whole entry, looked up: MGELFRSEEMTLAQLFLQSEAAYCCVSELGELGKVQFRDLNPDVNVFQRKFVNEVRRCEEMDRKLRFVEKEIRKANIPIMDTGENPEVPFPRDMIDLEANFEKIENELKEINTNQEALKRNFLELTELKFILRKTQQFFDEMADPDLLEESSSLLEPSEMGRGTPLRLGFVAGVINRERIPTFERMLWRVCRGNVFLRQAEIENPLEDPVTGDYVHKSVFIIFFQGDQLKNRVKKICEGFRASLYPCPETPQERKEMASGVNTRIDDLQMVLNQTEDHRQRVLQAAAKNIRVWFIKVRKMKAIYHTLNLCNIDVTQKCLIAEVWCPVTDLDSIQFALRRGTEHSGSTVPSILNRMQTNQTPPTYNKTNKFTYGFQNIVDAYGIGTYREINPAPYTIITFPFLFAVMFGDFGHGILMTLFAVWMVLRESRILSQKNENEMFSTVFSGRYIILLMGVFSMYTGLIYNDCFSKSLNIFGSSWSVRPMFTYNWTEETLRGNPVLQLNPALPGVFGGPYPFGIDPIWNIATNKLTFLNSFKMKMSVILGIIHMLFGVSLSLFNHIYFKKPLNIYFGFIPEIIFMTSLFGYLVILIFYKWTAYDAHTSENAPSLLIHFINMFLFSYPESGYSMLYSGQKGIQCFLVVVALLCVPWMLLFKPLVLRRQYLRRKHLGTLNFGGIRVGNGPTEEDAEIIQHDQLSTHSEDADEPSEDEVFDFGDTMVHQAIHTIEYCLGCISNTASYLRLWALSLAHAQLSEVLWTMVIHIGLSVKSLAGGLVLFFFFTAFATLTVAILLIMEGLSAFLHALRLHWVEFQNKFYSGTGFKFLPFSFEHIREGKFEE
UniProt P32121, whole entry, looked up: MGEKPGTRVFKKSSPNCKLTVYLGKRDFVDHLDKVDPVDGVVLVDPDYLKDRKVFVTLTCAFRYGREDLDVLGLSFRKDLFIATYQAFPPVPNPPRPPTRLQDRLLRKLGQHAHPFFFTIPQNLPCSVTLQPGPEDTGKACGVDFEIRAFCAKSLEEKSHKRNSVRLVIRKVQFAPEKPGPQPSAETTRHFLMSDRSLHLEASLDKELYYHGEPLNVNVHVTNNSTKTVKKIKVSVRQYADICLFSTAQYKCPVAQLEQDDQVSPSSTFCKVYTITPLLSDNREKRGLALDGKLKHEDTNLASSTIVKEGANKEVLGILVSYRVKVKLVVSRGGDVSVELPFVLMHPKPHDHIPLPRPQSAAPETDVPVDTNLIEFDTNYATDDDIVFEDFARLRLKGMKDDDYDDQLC
UniProt Q9NWL6: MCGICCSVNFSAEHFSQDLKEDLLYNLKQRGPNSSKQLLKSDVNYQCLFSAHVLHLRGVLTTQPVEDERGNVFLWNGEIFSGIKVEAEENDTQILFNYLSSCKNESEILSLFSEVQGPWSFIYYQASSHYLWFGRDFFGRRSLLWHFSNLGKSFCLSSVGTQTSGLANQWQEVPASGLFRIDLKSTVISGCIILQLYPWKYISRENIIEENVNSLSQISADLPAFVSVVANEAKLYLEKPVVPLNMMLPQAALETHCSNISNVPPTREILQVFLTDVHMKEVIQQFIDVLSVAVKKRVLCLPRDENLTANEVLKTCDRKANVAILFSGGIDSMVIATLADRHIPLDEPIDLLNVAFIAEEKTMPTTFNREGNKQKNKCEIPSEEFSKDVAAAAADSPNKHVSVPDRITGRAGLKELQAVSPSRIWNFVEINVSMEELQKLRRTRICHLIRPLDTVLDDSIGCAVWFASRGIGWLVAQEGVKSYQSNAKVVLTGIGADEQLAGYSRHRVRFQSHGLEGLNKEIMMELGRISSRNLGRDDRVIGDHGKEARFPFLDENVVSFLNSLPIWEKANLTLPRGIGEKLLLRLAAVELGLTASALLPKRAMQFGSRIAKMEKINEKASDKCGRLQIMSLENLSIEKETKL
UniProt P61421, whole entry, looked up: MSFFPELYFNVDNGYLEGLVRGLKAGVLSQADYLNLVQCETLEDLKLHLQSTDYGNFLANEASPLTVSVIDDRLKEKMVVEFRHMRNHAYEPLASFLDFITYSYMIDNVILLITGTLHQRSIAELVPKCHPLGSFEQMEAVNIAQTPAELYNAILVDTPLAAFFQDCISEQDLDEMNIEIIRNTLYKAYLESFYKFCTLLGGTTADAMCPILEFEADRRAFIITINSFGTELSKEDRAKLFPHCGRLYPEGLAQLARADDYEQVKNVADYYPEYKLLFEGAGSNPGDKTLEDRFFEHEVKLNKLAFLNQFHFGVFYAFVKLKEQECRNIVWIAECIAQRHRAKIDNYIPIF
UniProt O95376: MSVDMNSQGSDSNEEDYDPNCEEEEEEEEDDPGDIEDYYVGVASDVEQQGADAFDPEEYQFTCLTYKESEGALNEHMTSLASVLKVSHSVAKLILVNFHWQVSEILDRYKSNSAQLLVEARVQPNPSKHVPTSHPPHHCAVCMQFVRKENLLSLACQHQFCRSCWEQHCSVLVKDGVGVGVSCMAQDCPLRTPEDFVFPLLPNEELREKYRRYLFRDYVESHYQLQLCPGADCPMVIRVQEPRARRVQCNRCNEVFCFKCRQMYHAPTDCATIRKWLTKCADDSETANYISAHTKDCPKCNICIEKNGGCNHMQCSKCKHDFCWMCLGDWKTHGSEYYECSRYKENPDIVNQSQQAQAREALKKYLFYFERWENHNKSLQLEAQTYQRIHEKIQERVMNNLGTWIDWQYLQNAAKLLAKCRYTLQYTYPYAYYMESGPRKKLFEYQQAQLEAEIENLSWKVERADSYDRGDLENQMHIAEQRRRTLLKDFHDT
UniProt P15848: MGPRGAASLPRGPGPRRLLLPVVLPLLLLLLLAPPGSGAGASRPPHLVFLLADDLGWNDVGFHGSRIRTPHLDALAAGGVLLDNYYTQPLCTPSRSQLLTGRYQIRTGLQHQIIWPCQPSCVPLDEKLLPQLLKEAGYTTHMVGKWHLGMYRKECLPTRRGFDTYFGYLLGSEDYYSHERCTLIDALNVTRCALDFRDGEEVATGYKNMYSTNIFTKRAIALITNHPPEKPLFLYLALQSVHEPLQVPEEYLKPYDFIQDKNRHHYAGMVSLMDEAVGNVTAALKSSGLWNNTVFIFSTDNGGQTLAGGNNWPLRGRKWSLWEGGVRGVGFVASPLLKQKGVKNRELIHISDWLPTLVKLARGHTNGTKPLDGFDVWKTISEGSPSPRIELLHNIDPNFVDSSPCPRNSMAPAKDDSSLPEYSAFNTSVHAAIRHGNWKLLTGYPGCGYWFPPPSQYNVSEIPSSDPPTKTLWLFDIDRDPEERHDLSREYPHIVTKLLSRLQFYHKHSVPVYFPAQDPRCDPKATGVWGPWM
UniProt P49407: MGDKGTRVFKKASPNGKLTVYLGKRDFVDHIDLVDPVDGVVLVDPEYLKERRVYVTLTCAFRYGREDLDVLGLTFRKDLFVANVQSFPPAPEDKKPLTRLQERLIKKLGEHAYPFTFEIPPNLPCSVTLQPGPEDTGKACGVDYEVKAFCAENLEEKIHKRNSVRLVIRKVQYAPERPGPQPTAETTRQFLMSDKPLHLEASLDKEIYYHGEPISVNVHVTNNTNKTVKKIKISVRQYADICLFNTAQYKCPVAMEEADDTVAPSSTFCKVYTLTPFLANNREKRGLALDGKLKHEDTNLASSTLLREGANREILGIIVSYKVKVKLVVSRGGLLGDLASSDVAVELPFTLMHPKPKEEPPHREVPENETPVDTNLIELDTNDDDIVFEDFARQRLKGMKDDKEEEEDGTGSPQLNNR
UniProt O75947: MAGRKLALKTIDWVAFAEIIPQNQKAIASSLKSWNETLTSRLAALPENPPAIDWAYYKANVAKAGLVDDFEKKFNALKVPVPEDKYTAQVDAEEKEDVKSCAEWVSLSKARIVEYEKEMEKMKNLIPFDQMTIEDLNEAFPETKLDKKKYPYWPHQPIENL
UniProt Q06055: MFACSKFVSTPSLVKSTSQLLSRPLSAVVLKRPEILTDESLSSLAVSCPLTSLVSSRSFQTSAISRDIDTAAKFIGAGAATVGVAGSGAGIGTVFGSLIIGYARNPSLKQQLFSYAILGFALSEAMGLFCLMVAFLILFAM
UniProt O75964: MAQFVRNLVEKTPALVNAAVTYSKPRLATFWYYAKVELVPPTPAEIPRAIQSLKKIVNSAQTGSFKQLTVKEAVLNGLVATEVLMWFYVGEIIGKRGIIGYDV
UniProt P08243: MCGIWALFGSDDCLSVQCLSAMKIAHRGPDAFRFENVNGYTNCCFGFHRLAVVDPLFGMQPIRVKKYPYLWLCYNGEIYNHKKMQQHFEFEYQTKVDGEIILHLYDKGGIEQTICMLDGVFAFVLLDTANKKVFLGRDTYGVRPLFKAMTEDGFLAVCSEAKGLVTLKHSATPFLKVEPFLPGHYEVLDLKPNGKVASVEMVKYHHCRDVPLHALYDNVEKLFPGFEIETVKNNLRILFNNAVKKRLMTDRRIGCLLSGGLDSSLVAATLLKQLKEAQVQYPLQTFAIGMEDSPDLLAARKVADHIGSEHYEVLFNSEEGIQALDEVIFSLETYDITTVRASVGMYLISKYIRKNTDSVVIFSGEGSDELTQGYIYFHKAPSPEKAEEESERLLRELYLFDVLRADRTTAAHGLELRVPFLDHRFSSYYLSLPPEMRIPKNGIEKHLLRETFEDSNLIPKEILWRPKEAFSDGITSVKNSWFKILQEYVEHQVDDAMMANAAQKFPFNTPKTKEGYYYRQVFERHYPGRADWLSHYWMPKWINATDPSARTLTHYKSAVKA
UniProt O75348, whole entry, looked up: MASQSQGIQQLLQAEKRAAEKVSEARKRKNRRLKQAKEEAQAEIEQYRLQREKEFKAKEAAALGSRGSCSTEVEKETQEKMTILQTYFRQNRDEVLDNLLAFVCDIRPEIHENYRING
UniProt Q16864, whole entry, looked up: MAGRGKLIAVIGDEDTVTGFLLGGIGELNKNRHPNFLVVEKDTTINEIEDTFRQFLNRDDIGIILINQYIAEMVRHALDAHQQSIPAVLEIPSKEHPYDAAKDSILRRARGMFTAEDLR

Tests used:
Assay in all cases: log2 fold change, soluble protein after heating vs DMSO (PISA); higher = thermal stabilisation; K562 cells, 10 uM, 30 min; active = over 0.2 and 3.5 SD of the protein, either way, in both replicates (recomputed)
[1] = compound: C1=CC=C(C=C1)[C@H](COC2=CC3=C(C=C2)NC(=O)N3)NC(=O)C4=CC=CN(C4=O)CC5=CC(=C(C=C5)F)F
In short: (§1)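 K562 cells (2×10^6 cells/mL) were treated with 10 μM compound for 30 min, and aliquots were heated for 3 min over 48°C-58°C. Pooled aliquots were extracted in PBS with 0.5% NP-40 at 4°C, and the supernatant after 21,000xg for 90 min was measured by TMTpro 16plex LC-MS/MS with channel sums equalised. Reported thermal stability, relative to control samples and from duplicates, is a log2 fold change.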

[2] = compound: CC1=C(SC2=C1C(=N[C@H](C3=NN=C(N32)C)CC(=O)N)C4=CC=C(C=C4)Cl)C
In short: as §1

[3] = compound: CC1=C2C(=CC=C1)N=C(N(C2=O)C3=CC=CC=C3C)CN4C=NC5=C(N=CN=C54)N
In short: as §1

[4] = compound: Cc1sc2c(c1C)C(c1ccc(Cl)cc1)=N[C@@H](CC(=O)OC(C)(C)C)c1nnc(C)n1-2
In short: as §1

[5] = compound: c1ccc([C@@H]2C[C@H]2NC2CCNCC2)cc1
In short: as §1

Measured: log2 fold change

ATP13A3 (UniProt Q9H7F0)
inactive: [1] -0.038 | [2] 0.008 | [3] 0.016 | [4] 0.018 | [5] -0.101

ATP5MF (UniProt P56134)
inactive: [1] 0.01 | [2] -0.028 | [3] 0.056 | [4] 0.01 | [5] 0.022

ARL6IP4 (UniProt Q66PJ3)
inactive: [1] 0.036 | [2] 0.027 | [3] 0.009 | [4] -0.016 | [5] -0.011

ATP11B (UniProt Q9Y2G3)
inactive: [1] 0.005 | [2] 0.009 | [3] 0.079 | [4] -0.03 | [5] 0.057

ATP6V0A1 (UniProt Q93050)
inactive: [1] 0.281

ATPSCKMT (UniProt Q6P4H8)
inactive: [1] 0.051 | [2] 0.048 | [3] -0.004 | [4] -0.046 | [5] 0.029

ATG5 (UniProt Q9H1Y0)
inactive: [1] -0.013 | [2] 0.045 | [3] 0.043 | [4] 0.01 | [5] 0.01

ATL3 (UniProt Q6DD88)
inactive: [1] -0.025 | [2] 0.032 | [3] 0.012 | [4] -0.042 | [5] -0.012

ARRB2 isoform 4 (UniProt P32121)
inactive: [1] 0.031 | [2] -0.01 | [3] 0.062 | [4] 0.004 | [5] 0.014

ASNSD1 (UniProt Q9NWL6)
inactive: [1] 0.201

ATP6V0D1 (UniProt P61421)
inactive: [1] 0.031 | [2] 0.008 | [3] 0.013 | [4] -0.169 | [5] -0.221

ATP2B1 isoform 1 (UniProt P20020)
inactive: [1] -0.009 | [2] 0.002 | [3] 0.029 | [4] 0.032 | [5] 0.036

ARIH2 (UniProt O95376)
inactive: [1] -0.011 | [2] -0.074 | [3] -0.018 | [4] -0.029 | [5] 0.043

ASCC1 isoform 2 (UniProt Q8N9N2)
inactive: [1] -0.033 | [2] 0.001 | [3] 0 | [4] 0.034 | [5] 0.008

ARSB (UniProt P15848)
inactive: [1] -0.028 | [2] 0.068 | [3] 0.025 | [4] -0.043 | [5] 0.027

ARRB1 (UniProt P49407)
inactive: [1] 0.008 | [2] 0.034 | [3] 0.003 | [4] -0.047 | [5] -0.036

ATP5PD (UniProt O75947)
inactive: [1] 0.058 | [2] 0 | [3] 0.023 | [4] -0.058 | [5] 0

ARPC5 (UniProt O15511)
inactive: [1] 0.042 | [2] 0.003 | [3] 0.015 | [4] -0.014 | [5] 0.064

ATP5MC2 isoform 2 (UniProt Q06055)
inactive: [1] 0.01 | [2] -0.034 | [3] -0.007 | [4] -0.048 | [5] 0.062

ATP5MG (UniProt O75964)
inactive: [1] 0.013 | [2] 0.039 | [3] 0.058 | [4] -0.131 | [5] -0.086

ASNS (UniProt P08243)
inactive: [1] 0.025 | [2] 0.044 | [3] 0.027 | [4] -0.008 | [5] -0.019

Retrieved one by one from the list above (2):
ARSB (UniProt P15848)
inactive: [1] -0.028 | [2] 0.068 | [3] 0.025 | [4] -0.043 | [5] 0.027

ATP2B1 isoform 1 (UniProt P20020)
inactive: [1] -0.009 | [2] 0.002 | [3] 0.029 | [4] 0.032 | [5] 0.036

Later entries:

ATP6V1G1 (UniProt O75348)
inactive: [1] 0.018 | [2] 0.001 | [3] 0.071 | [4] 0.008 | [5] -0.063

ATP5F1C (UniProt P36542)
inactive: [1] 0.025 | [2] 0.008 | [3] 0.021 | [4] 0.006 | [5] 0.007

ARPC4 isoform 3 (UniProt P59998)
inactive: [1] 0.011 | [2] 0.036 | [3] 0.023 | [4] -0.05 | [5] 0.028

ATP6V1F isoform 2 (UniProt Q16864)
inactive: [1] 0.015 | [2] -0.144 | [3] -0.138 | [4] -0.126 | [5] 0.02
